# Results reported in PubChem BioAssay AID485318 (Broad Institute, 2010).
# By UniProt entry, the sequences of proteins in these tests, tags left out. Where a name states a change or a piece, a line headed by the entry shows the natural chain unless it says otherwise.
# UniProt O15379: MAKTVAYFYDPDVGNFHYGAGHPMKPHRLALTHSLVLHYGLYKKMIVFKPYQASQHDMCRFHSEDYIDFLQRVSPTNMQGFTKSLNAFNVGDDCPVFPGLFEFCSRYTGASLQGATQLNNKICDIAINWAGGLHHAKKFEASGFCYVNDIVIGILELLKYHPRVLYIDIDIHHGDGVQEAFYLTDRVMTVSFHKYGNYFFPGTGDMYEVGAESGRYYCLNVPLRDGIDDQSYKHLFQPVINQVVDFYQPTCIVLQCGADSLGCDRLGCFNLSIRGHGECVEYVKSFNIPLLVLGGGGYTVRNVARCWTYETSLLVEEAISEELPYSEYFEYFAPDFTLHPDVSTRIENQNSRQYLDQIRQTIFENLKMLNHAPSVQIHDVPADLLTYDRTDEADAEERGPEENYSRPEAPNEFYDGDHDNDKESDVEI
# Fewer than 10 of roughly 1,400 compounds were called active.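 Rule for the calls: active = fluorescence-lowering compounds whose fitted half-maximal concentration is at or below ten times the highest valid dose tested; inconclusive = flat curve at 30 to 70% inhibition, or poor fit; inactive = the rest.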 The list shows a part of the results.
# Biological target: Histone deacetylase 3 (Homo sapiens) (UniProt O15379)
# Assay: inhibition of human HDAC3 enzymatic activity – biochemical, fluorescence, cherry-picked samples, counter-screen for JMJD2C/GASC1 demethylase inhibitor project, dose response (AID 485318);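 note: enzyme preincubated with compound before substrate and trypsin were added; 0% = neutral control wells and -100% = SAHA positive control wells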
# Settings: recombinant HDAC3, fluorogenic peptide/trypsin coupled; at 12 µM (top of the series)
row,SMILES,"activity change, negative = inhibition"
1,COc1ccccc1C(=O)OCc1c(-c2ccccc2)ncc2ccccc12,inactive: -0.395%
2,Cn1c(=O)[nH]c(=O)c2c1nc(N1CCOCC1)n2CCc1ccccc1,inactive: 0.223%
3,Cc1cc(Cl)ccc1OCc1nc(-c2ccncc2)no1,inactive: 0.0905%
4,c1ccc(Nc2n[nH]nc2-c2ccccc2)cc1,inactive: 0.651%
5,COc1ccccc1NC(=O)c1cccs1,inactive: 0.291%
6,COc1ccc(CNC(=O)C2(CC3CC(c4ccccc4)=NO3)CCNCC2)cc1 (configuration not stated),inactive: -0.0236%
7,CSc1nsc(SCC(=O)Nc2c(C)n(C)n(-c3ccccc3)c2=O)n1,inactive: -0.59%
8,COC(=O)COc1ccc(S(=O)(=O)N2CCOCC2)cc1C,inactive: -0.254%
9,CCN(C[C@H]1N[C@@](C)(C(=O)OC)[C@H]2C(=O)N(C)C(=O)[C@@H]12)C(=O)Nc1ccc(OC)cc1,inactive: -0.229%
10,O=C(CN1C(=O)c2ccccc2C1=O)NCC1COc2ccccc2O1 (configuration not stated),inactive: 0.934%
11,CCN(CC(=O)NCC1CCCO1)S(=O)(=O)c1ccc(Cl)cc1 (configuration not stated),inactive: 0.153%
12,Cc1[nH][nH]c(=O)c1C(c1c(C)[nH][nH]c1=O)c1cn(Cc2cccc3ccccc23)c2ccccc12,inactive: 0.591%
13,COc1ccc(NC(=O)CCCN(C)S(=O)(=O)c2ccc(C)cc2)cc1,inactive: 0.0926%
14,CC(C)(C)n1nnnc1C(c1cccnc1)N1CCN(c2ccccc2)CC1 (configuration not stated),inactive: 0.251%
15,COc1cc(NC(=O)CSc2nnnn2Cc2ccc3c(c2)OCO3)cc(OC)c1,inactive: 0.326%
16,Cc1ccc(O)c(C(=O)c2cc(C#N)c(=O)n(CC3CCCO3)c2)c1 (configuration not stated),inactive: -0.325%
17,COc1ccccc1-n1c(SCC(=O)N2CCCC2)nc2cccnc21,inactive: 0.166%
18,Cc1ccc(NC(=O)C(=O)NCCN2CCN(C(=O)C(c3ccccc3)c3ccccc3)CC2)cc1,inactive: -0.583%
19,CCOC(=O)C1=C(Cc2ccc(F)cc2)C(=O)c2ccccc2C1=O,inactive: 0.102%
20,Cc1ccc(C(=O)NCC(=O)OCC(=O)Nc2ccc(Cl)cc2C(F)(F)F)cc1C,inactive: -0.15%
21,COc1ccc(NC(=O)N(C)C[C@H]2Oc3c(NC(=O)Nc4ccccc4)cccc3C(=O)N([C@H](C)CO)C[C@@H]2C)cc1,inactive: -0.0534%
22,Brc1ccc(-c2csc(N3CCc4ccccc4C3)n2)cc1,inactive: -0.797%

# Looked up above:
# For activity change, negative = inhibition, COc1ccc(NC(=O)CCCN(C)S(=O)(=O)c2ccc(C)cc2)cc1 has the entry inactive: 0.0926%
# For activity change, negative = inhibition, CCN(CC(=O)NCC1CCCO1)S(=O)(=O)c1ccc(Cl)cc1 (configuration not stated) has the entry inactive: 0.153%
